# Assay results as given in the supplement of paper PMC8728848.
# This is one part of the list.
# B1: HA-00510 (Pseudomonas aeruginosa), Q02V39_PSEAB (protein)
# chain: GVPIVNIATPNGAGLSNNHFRDYNVGANGLILNNATGKTQGTQLGGIILGNPNLKGQAAQVILNQVTGGNRSTLAGYTEVAGQSARVIVANPHGITCQGCGFINTPRATLTTGKPIMDGQRLERFQVDGGDIVVEGAELNVGNLEQFDLITRSAKLNAKLYAKNLNIVTGRNDVQADSLQATPRAADGSEKPQLAIDSSALGGMYAGAIRLVGTEQGVGVKLAGDMAASGGDIRIDASGKLSLAQASSQGDLKIAAQAVELNGKTYAGGSAEIRSAEELVNRQS
# How the values were obtained:
# Experiment in all cases: glycan array binding signal (z-score within array); higher = stronger binding
# Conditions in all cases: glycan notation: IUPAC condensed, linker removed
# [1] = molecular target: Gal(b1-3)GlcNAc(b1-6)GalNAc
# Method in brief: (§1)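 The binding signal is a Z-score computed within each array and averaged over linkers. Arrays of the same protein sequence at different concentrations or buffers were also averaged together. Data originate from 3228 arrays in the Consortium for Functional Glycomics database, kept only where the protein sequence was available.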
# [2] = molecular target: Gal(b1-3)GlcNAc(b1-6)[Gal(b1-3)]GalNAc
# Method in brief: as §1
# Gal(b1-3)GlcNAc6S = molecular target: Gal(b1-3)GlcNAc6S
# Method in brief: as §1
# [3] = molecular target: Gal(b1-3)[Fuc(a1-4)]GlcNAc
# Method in brief: as §1
# [4] = molecular target: Gal(b1-3)[Fuc(a1-4)]GlcNAc(b1-2)Man
# Method in brief: as §1
# [5] = molecular target: Gal(b1-3)[Fuc(a1-4)]GlcNAc(b1-2)Man(a1-3)[Gal(b1-3)[Fuc(a1-4)]GlcNAc(b1-2)Man(a1-6)]Man(b1-4)GlcNAc(b1-4)[Fuc(a1-6)]GlcNAc
# Method in brief: as §1
# [6] = molecular target: Gal(b1-3)[Fuc(a1-4)]GlcNAc(b1-3)Gal(b1-3)[Fuc(a1-4)]GlcNAc
# Method in brief: as §1
# [7] = molecular target: Gal(b1-3)[Fuc(a1-4)]GlcNAc(b1-3)Gal(b1-4)[Fuc(a1-3)]GlcNAc
# Method in brief: as §1
# [8] = molecular target: Gal(b1-3)[Fuc(a1-4)]GlcNAc(b1-6)GalNAc
# Method in brief: as §1
# [9] = molecular target: Gal(b1-3)[GlcNAc(b1-6)]GalNAc
# Method in brief: as §1
# [10] = molecular target: Gal(b1-3)[Neu5Ac(a2-6)]GalNAc
# Method in brief: as §1
# [11] = molecular target: Gal(b1-3)[Neu5Ac(a2-6)]GlcNAc(b1-4)Gal(b1-4)Glc
# Method in brief: as §1
# [12] = molecular target: Gal(b1-3)[Neu5Ac(b2-6)]GalNAc
# Method in brief: as §1
# Gal(b1-4)Gal = molecular target: Gal(b1-4)Gal
# Method in brief: as §1
# [13] = molecular target: Gal(b1-4)GalNAc(a1-3)[Fuc(a1-2)]Gal(b1-4)GlcNAc
# Method in brief: as §1
# [14] = molecular target: Gal(b1-4)GalNAc(b1-3)[Fuc(a1-2)]Gal(b1-4)GlcNAc
# Method in brief: as §1
# Gal(b1-4)Glc = molecular target: Gal(b1-4)Glc
# Method in brief: as §1
# Gal(b1-4)Glc6S = molecular target: Gal(b1-4)Glc6S
# Method in brief: as §1
# Gal(b1-4)GlcNAc = molecular target: Gal(b1-4)GlcNAc
# Method in brief: as §1
# [15] = molecular target: Gal(b1-4)GlcNAc(a1-6)Gal(b1-4)GlcNAc
# Method in brief: as §1
# Gal(b1-4)GlcNAc(b1-2)Man = molecular target: Gal(b1-4)GlcNAc(b1-2)Man
# Method in brief: as §1
# [16] = molecular target: Gal(b1-4)GlcNAc(b1-2)Man(a1-3)Man(b1-4)GlcNAc(b1-4)GlcNAc
# Method in brief: as §1
# [17] = molecular target: Gal(b1-4)GlcNAc(b1-2)Man(a1-3)[Gal(b1-4)GlcNAc(b1-2)Man(a1-6)]Man(b1-4)GlcNAc(b1-4)GlcNAc
# Method in brief: as §1
# [18] = molecular target: Gal(b1-4)GlcNAc(b1-2)Man(a1-3)[Gal(b1-4)GlcNAc(b1-2)Man(a1-6)]Man(b1-4)GlcNAc(b1-4)[Fuc(a1-6)]GlcNAc
# Method in brief: as §1
# [19] = molecular target: Gal(b1-4)GlcNAc(b1-2)Man(a1-3)[Gal(b1-4)GlcNAc(b1-2)Man(a1-6)][Gal(b1-4)GlcNAc(b1-4)]Man(b1-4)GlcNAc(b1-4)[Fuc(a1-6)]GlcNAc
# Method in brief: as §1
# [20] = molecular target: Gal(b1-4)GlcNAc(b1-2)Man(a1-3)[Gal(b1-4)GlcNAc(b1-2)Man(a1-6)][GlcNAc(b1-4)]Man(b1-4)GlcNAc(b1-4)[Fuc(a1-6)]GlcNAc
# Method in brief: as §1
# [21] = molecular target: Gal(b1-4)GlcNAc(b1-2)Man(a1-3)[GlcNAc(b1-2)Man(a1-6)]Man(b1-4)GlcNAc(b1-4)GlcNAc
# Method in brief: as §1
# [22] = molecular target: Gal(b1-4)GlcNAc(b1-2)Man(a1-3)[GlcNAc(b1-4)][Gal(b1-4)GlcNAc(b1-2)Man(a1-6)]Man(b1-4)GlcNAc(b1-4)GlcNAc
# Method in brief: as §1
# [23] = molecular target: Gal(b1-4)GlcNAc(b1-2)Man(a1-3)[Man(a1-6)]Man(b1-4)GlcNAc(b1-4)GlcNAc
# Method in brief: as §1
# [24] = molecular target: Gal(b1-4)GlcNAc(b1-2)Man(a1-6)Man(b1-4)GlcNAc(b1-4)GlcNAc
# Method in brief: as §1
# [25] = molecular target: Gal(b1-4)GlcNAc(b1-2)Man(a1-6)[GlcNAc(b1-2)Man(a1-3)]Man(b1-4)GlcNAc(b1-4)GlcNAc
# Method in brief: as §1
# [26] = molecular target: Gal(b1-4)GlcNAc(b1-2)Man(a1-6)[Man(a1-3)]Man(b1-4)GlcNAc(b1-4)GlcNAc
# Method in brief: as §1
# [27] = molecular target: Gal(b1-4)GlcNAc(b1-2)[Gal(b1-4)GlcNAc(b1-4)]Man(a1-3)[Gal(b1-4)GlcNAc(b1-2)Man(a1-6)]Man(b1-4)GlcNAc(b1-4)GlcNAc
# Method in brief: as §1
# [28] = molecular target: Gal(b1-4)GlcNAc(b1-2)[Gal(b1-4)GlcNAc(b1-4)]Man(a1-3)[Gal(b1-4)GlcNAc(b1-2)[Gal(b1-4)GlcNAc(b1-6)]Man(a1-6)]Man(b1-4)GlcNAc(b1-4)GlcNAc
# Method in brief: as §1
# [29] = molecular target: Gal(b1-4)GlcNAc(b1-2)[Gal(b1-4)GlcNAc(b1-4)]Man(a1-3)[GlcNAc(b1-4)][Gal(b1-4)GlcNAc(b1-2)Man(a1-6)]Man(b1-4)GlcNAc(b1-4)GlcNAc
# Method in brief: as §1
# [30] = molecular target: Gal(b1-4)GlcNAc(b1-2)[Gal(b1-4)GlcNAc(b1-4)]Man(a1-3)[GlcNAc(b1-4)][Gal(b1-4)GlcNAc(b1-2)[Gal(b1-4)GlcNAc(b1-6)]Man(a1-6)]Man(b1-4)GlcNAc(b1-4)GlcNAc
# Method in brief: as §1
# [31] = molecular target: Gal(b1-4)GlcNAc(b1-2)[Gal(b1-4)GlcNAc(b1-6)]Man(a1-6)[Gal(b1-4)GlcNAc(b1-2)Man(a1-3)]Man(b1-4)GlcNAc(b1-4)GlcNAc
# Method in brief: as §1
binder,measurement,setting,value
B1,glycan array binding signal (z-score),[1],-0.335
same,glycan array binding signal (z-score),[2],-0.262
same,glycan array binding signal (z-score),Gal(b1-3)GlcNAc6S,0.585
same,glycan array binding signal (z-score),[3],0.41
same,glycan array binding signal (z-score),[4],0.057
same,glycan array binding signal (z-score),[5],-0.347
same,glycan array binding signal (z-score),[6],0.049
same,glycan array binding signal (z-score),[7],-0.958
same,glycan array binding signal (z-score),[8],0.242
same,glycan array binding signal (z-score),[9],-0.642
same,glycan array binding signal (z-score),[10],-0.256
same,glycan array binding signal (z-score),[11],-0.104
same,glycan array binding signal (z-score),[12],0.022
same,glycan array binding signal (z-score),Gal(b1-4)Gal,-0.97
same,glycan array binding signal (z-score),[13],0.199
same,glycan array binding signal (z-score),[14],-1.09
same,glycan array binding signal (z-score),Gal(b1-4)Glc,-0.288
same,glycan array binding signal (z-score),Gal(b1-4)Glc6S,0.676
same,glycan array binding signal (z-score),Gal(b1-4)GlcNAc,-0.221
same,glycan array binding signal (z-score),[15],0.168
same,glycan array binding signal (z-score),Gal(b1-4)GlcNAc(b1-2)Man,-0.298
same,glycan array binding signal (z-score),[16],-0.221
same,glycan array binding signal (z-score),[17],-0.916
same,glycan array binding signal (z-score),[18],0.296
same,glycan array binding signal (z-score),[19],-0.645
same,glycan array binding signal (z-score),[20],-0.311
same,glycan array binding signal (z-score),[21],-0.147
same,glycan array binding signal (z-score),[22],-0.458
same,glycan array binding signal (z-score),[23],0.125
same,glycan array binding signal (z-score),[24],0.479
same,glycan array binding signal (z-score),[25],0.713
same,glycan array binding signal (z-score),[26],-0.04
same,glycan array binding signal (z-score),[27],0.004
same,glycan array binding signal (z-score),[28],-0.079
same,glycan array binding signal (z-score),[29],-0.568
same,glycan array binding signal (z-score),[30],0.347
same,glycan array binding signal (z-score),[31],-0.521

# An excerpt of these results, with tabs:
binder	measurement	setting	value
B1	glycan array binding signal (z-score)	[1]	-0.335
same	glycan array binding signal (z-score)	[5]	-0.347
same	glycan array binding signal (z-score)	[7]	-0.958
same	glycan array binding signal (z-score)	[8]	0.242
same	glycan array binding signal (z-score)	[12]	0.022
same	glycan array binding signal (z-score)	[15]	0.168
same	glycan array binding signal (z-score)	[18]	0.296
same	glycan array binding signal (z-score)	[20]	-0.311
same	glycan array binding signal (z-score)	[31]	-0.521
